PubChem BioAssay AID1053208 | Peter MacCallum Cancer Centre | 2014

Purpose: 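Synthetic lethal interactions between gene loss and doxorubicin in osteosarcoma cells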 (primary screen)
Cell system: mouse osteosarcoma cells, early-passage culture from an engineered mouse model of fibroblastic bone tumour
Reagents: siRNA pool against mouse genes, 40 nM
Duration: about 120 h (48 h before drug, then 72 h with drug)
Treatment: doxorubicin 100 nM for 72 h, roughly 30-40% inhibitory dose
Measured: 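Viability read as ATP luminescence after 72 h of 100 nM doxorubicin or none, duplicate wells averaged, scaled to non-targeting siRNA, then expressed as robust z-scores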
Scale: viability z-score with doxorubicin: higher = more viable cells under doxorubicin; viability z-score without drug: higher = more viable cells with knock-down alone
Active means: 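Called active if knock-down leaves viability unchanged without drug (z within -2 to 2) but lowers it with doxorubicin (z at or under -2)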
Here is an unselected part of about 17,000 reagents tested. 788 of them (4.7%) were called active. 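Calls rest on z-score classes alone; an extra cut-off of viability at most 70% of control was not applied to them.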 Further read-outs or replicates are left out here.

Kif13b (GeneID 16554) scored combined z-score class no change with or without drug; viability z-score with doxorubicin 0.67; viability z-score without drug -0.17; inactive.
Knock-down of Or2y1e (GeneID 258460) gave: combined z-score class no change with or without drug; viability z-score with doxorubicin -1.8; viability z-score without drug -1.85; inactive.
Prss16 (GeneID 54373) scored combined z-score class no change with or without drug; viability z-score with doxorubicin 0.34; viability z-score without drug 0.34; inactive.
Npsr1 (GeneID 319239) showed combined z-score class no change with or without drug; viability z-score with doxorubicin 0.79; viability z-score without drug 0.51; inactive.
Against Ptpn18 (GeneID 19253), the entry reads combined z-score class no change with or without drug; viability z-score with doxorubicin 1.35; viability z-score without drug 0.84; inactive.
Against Acsm4 (GeneID 233801), the entry reads combined z-score class no change with or without drug; viability z-score with doxorubicin 0.34; viability z-score without drug 0.84; inactive.
For Rab38 (GeneID 72433) the deposit lists combined z-score class no change with or without drug; viability z-score with doxorubicin 1.91; viability z-score without drug 1.01; inactive.
After knock-down of Zfat (GeneID 380993), the record shows combined z-score class no change with or without drug; viability z-score with doxorubicin 0.22; viability z-score without drug 1.18; inactive.
A930104D05Rik (GeneID 320600) showed combined z-score class no change with or without drug; viability z-score with doxorubicin 0.67; viability z-score without drug 1.85; inactive.
For Trim25 (GeneID 217069), the values are combined z-score class high cell count without drug only; viability z-score with doxorubicin 0.79; viability z-score without drug 2.19; inactive.
Against Zmat3 (GeneID 22401), the values are combined z-score class no change with or without drug; viability z-score with doxorubicin -1.01; viability z-score without drug -0.67; inactive.
Knock-down of Mboat7 (GeneID 77582) resulted in: combined z-score class no change with or without drug; viability z-score with doxorubicin 0.56; viability z-score without drug 0.34; inactive.
For Tmem135 (GeneID 72759), the values are combined z-score class no change with or without drug; viability z-score with doxorubicin -0.22; viability z-score without drug -0.51; inactive.

As entered above.
For “combined z-score class”, Kif13b (GeneID 16554) shows no change with or without drug
For “combined z-score class”, Npsr1 (GeneID 319239) shows no change with or without drug

Next reagents follow:
Silencing of Usp22 (GeneID 216825) gave: combined z-score class no change with or without drug; viability z-score with doxorubicin -0.67; viability z-score without drug 0.51; inactive.
For Pde8b (GeneID 218461) the deposit lists combined z-score class no change with or without drug; viability z-score with doxorubicin 0; viability z-score without drug 0; inactive.
For Ppp2r2b (GeneID 72930) the deposit lists combined z-score class high cell count without drug only; viability z-score with doxorubicin 0; viability z-score without drug 2.19; inactive.
With knock-down of Cyria (GeneID 76820), the record shows combined z-score class no change with or without drug; viability z-score with doxorubicin -0.22; viability z-score without drug 0.67; inactive.
After knock-down of Dok4 (GeneID 114255), the record shows combined z-score class no change with or without drug; viability z-score with doxorubicin -0.11; viability z-score without drug -0.51; inactive.
After knock-down of Ern1 (GeneID 78943), the screen gave combined z-score class no change with or without drug; viability z-score with doxorubicin -1.12; viability z-score without drug -0.17; inactive.
Abhd11 (GeneID 68758) showed combined z-score class no change with or without drug; viability z-score with doxorubicin -0.67; viability z-score without drug 1.01; inactive.
Fcmr (GeneID 69169) scored combined z-score class no change with or without drug; viability z-score with doxorubicin 0.22; viability z-score without drug 1.18; inactive.
For Riok3 (GeneID 66878) the deposit lists combined z-score class no change with or without drug; viability z-score with doxorubicin 0.22; viability z-score without drug 0.84; inactive.
Against Hinfp (GeneID 102423), the entry reads combined z-score class no change with or without drug; viability z-score with doxorubicin -1.8; viability z-score without drug -0.17; inactive.
Depletion of Tshz3 (GeneID 243931) came out at: combined z-score class no change with or without drug; viability z-score with doxorubicin 0; viability z-score without drug 0.51; inactive.
Against Lypd4 (GeneID 232973) the deposit lists combined z-score class no change with or without drug; viability z-score with doxorubicin -1.35; viability z-score without drug -1.85; inactive.
Knock-down of Fcf1 (GeneID 73736) resulted in: combined z-score class no change with or without drug; viability z-score with doxorubicin -1.12; viability z-score without drug -0.67; inactive.
Against Pzp2 (GeneID 11287) the deposit lists combined z-score class no change with or without drug; viability z-score with doxorubicin 1.24; viability z-score without drug 1.85; inactive.
After knock-down of Prss42 (GeneID 235628), the record shows combined z-score class no change with or without drug; viability z-score with doxorubicin -0.56; viability z-score without drug -1.01; inactive.
